At least one compound was matched to its structure with a doubt left.
Tested on: Aspergillus oryzae
Conditions: dose of Se 15 mg/L
Protocol: The dose of iron was calculated as a concentration of iron elements rather than the concentration of salt; to enable comparison with the iron content in the fungal biomass. All fungal samples were thoroughly washed with deionizer water prior to testing by the ICP-OES method.
Other inorganic minerals such as selenium and zinc have been used to produce selenium or zinc enriched yeast, but the use of filamentous fungi has not been reported. […] A similar process (FIG. 2) was used for growing Aspergillus oryzae fortified with either sodium selenite or zinc sulfate. The dose of either inorganic salt was calculated as a concentration of the elements rather than the concentration of salt to enable comparison with the mineral content in the fungal biomass.

SMILES: O=[Se](O)O [Se, sodium selenite]
- effect on fungal yield: fungal yield significantly reduced
